Publication PMC10566725
No constants are given. Whether binding was seen depends on the method and setting. In cells and extracts the contact can be indirect. Some results given as binding are weak or reduced against the parent protein; the word gives no strength. Tags and fused reporters may be left off the sequences shown.

T1: 3xHA::mGL::FLR-4 (C. elegans) (UniProt Q9NLA1)
T1 sequence: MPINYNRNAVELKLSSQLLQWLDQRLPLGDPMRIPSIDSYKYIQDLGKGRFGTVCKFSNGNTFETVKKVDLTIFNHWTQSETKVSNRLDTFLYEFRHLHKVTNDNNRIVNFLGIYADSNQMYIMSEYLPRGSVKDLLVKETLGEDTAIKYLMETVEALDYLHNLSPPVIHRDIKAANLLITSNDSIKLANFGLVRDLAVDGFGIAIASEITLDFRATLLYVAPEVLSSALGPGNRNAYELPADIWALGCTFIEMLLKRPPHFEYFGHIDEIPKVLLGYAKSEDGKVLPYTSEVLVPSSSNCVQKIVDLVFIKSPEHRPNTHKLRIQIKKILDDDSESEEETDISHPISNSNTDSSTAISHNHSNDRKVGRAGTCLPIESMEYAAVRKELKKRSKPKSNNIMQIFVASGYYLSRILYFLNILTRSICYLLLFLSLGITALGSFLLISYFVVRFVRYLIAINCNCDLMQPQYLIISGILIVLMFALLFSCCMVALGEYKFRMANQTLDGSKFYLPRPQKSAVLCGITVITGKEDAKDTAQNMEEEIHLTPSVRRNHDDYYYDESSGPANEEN

T2: mKate2::3xFLAG::DRL-1 (C. elegans) (UniProt Q86ME2)
T2 sequence: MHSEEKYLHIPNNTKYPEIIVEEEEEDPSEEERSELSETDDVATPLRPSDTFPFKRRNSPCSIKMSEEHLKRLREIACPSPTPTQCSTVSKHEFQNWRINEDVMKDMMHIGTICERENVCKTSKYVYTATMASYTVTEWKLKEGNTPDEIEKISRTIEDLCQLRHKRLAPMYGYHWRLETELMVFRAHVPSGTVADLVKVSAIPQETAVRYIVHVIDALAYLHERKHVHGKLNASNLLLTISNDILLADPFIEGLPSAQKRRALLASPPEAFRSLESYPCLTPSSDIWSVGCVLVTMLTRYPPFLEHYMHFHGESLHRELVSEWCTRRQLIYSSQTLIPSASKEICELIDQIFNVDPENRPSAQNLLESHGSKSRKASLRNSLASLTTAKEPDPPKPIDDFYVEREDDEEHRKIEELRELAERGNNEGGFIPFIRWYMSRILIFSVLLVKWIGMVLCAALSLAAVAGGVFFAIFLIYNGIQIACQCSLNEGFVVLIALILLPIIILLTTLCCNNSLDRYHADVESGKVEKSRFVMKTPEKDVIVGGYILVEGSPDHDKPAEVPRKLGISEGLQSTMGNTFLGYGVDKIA


Legend:
[1] = molecular target: T1, 3xHA::mGL::FLR-4 (C. elegans); experiment: co-IP; lysate of approximately 50,000 day 1 adults of strain DLS781 split in 3 parts: mock IP (no antibody), anti-HA IP (3F10) or anti-FLAG IP (M2) on Protein G Dynabeads; western blot with anti-FLAG or anti-HA
[2] = molecular target: T2, mKate2::3xFLAG::DRL-1 (C. elegans); experiment: as above

Row | binding [1] | binding [2] | Binder
1 | binds | – | mKate2::3xFLAG::DRL-1 (protein, UniProt Q86ME2 1-589) MHSEEKYLHIPNNTKYPEIIVEEEEEDPSEEERSELSETDDVATPLRPSDTFPFKRRNSPCSIKMSEEHLKRLREIACPSPTPTQCSTVSKHEFQNWRINEDVMKDMMHIGTICERENVCKTSKYVYTATMASYTVTEWKLKEGNTPDEIEKISRTIEDLCQLRHKRLAPMYGYHWRLETELMVFRAHVPSGTVADLVKVSAIPQETAVRYIVHVIDALAYLHERKHVHGKLNASNLLLTISNDILLADPFIEGLPSAQKRRALLASPPEAFRSLESYPCLTPSSDIWSVGCVLVTMLTRYPPFLEHYMHFHGESLHRELVSEWCTRRQLIYSSQTLIPSASKEICELIDQIFNVDPENRPSAQNLLESHGSKSRKASLRNSLASLTTAKEPDPPKPIDDFYVEREDDEEHRKIEELRELAERGNNEGGFIPFIRWYMSRILIFSVLLVKWIGMVLCAALSLAAVAGGVFFAIFLIYNGIQIACQCSLNEGFVVLIALILLPIIILLTTLCCNNSLDRYHADVESGKVEKSRFVMKTPEKDVIVGGYILVEGSPDHDKPAEVPRKLGISEGLQSTMGNTFLGYGVDKIA
2 | – | binds | 3xHA::mGL::FLR-4 (protein, UniProt Q9NLA1 1-570) MPINYNRNAVELKLSSQLLQWLDQRLPLGDPMRIPSIDSYKYIQDLGKGRFGTVCKFSNGNTFETVKKVDLTIFNHWTQSETKVSNRLDTFLYEFRHLHKVTNDNNRIVNFLGIYADSNQMYIMSEYLPRGSVKDLLVKETLGEDTAIKYLMETVEALDYLHNLSPPVIHRDIKAANLLITSNDSIKLANFGLVRDLAVDGFGIAIASEITLDFRATLLYVAPEVLSSALGPGNRNAYELPADIWALGCTFIEMLLKRPPHFEYFGHIDEIPKVLLGYAKSEDGKVLPYTSEVLVPSSSNCVQKIVDLVFIKSPEHRPNTHKLRIQIKKILDDDSESEEETDISHPISNSNTDSSTAISHNHSNDRKVGRAGTCLPIESMEYAAVRKELKKRSKPKSNNIMQIFVASGYYLSRILYFLNILTRSICYLLLFLSLGITALGSFLLISYFVVRFVRYLIAINCNCDLMQPQYLIISGILIVLMFALLFSCCMVALGEYKFRMANQTLDGSKFYLPRPQKSAVLCGITVITGKEDAKDTAQNMEEEIHLTPSVRRNHDDYYYDESSGPANEEN
